Measurements reported in PubChem BioAssay AID686937 (Drosophila RNAi Screening Center, 2013)
Screen: 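Genes in the fly needed for secretion of protein constitutively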 (primary screen). Cells: Drosophila S2 cells expressing secreted horseradish peroxidase. Reagent: long dsRNA against Drosophila genes. Timing: about 5.5 days (5 days dsRNA, then 12 h reporter induction). Challenge: reporter expression induced after 5 days of dsRNA, read 12 h later; inducer not stated. Measured: 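After 5 days of dsRNA and 12 h of reporter induction, medium peroxidase read by chemiluminescence and scored as per-plate z-score; higher values mean more reporter released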. Scale: z-score: higher = more reporter secreted into medium.
The screen tested about 23,000 reagents; this is an unselected part of those with a known target gene and a result. 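Reduced-secretion tags in replicate 1 do not always agree with the z-scores; no criterion for assigning the tags was given.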 Reagents against one gene are numbered here. Names joined by + are all predicted targets of the reagent. Reagent sequences are not shown. Not stated in the record: the amount of reagent.

| Target gene | dsRNA no. | z-score, replicate 1 | z-score, replicate 2 | z-score, replicate 3 | z-score, replicate 4 | phenotype, replicate 1 |
| --- | --- | --- | --- | --- | --- | --- |
| PAN3 | 1 | 0.54 | 0.23 | – | – | – |
| Ect3 | 1 | 0.03 | 0.51 | – | – | – |
| aqrs | 1 | 0.47 | 0.33 | – | – | – |
| Srp54k | 1 | -3.35 | -0.51 | – | – | reduced secretion |
| CG6805 | 1 | -0.07 | 0.18 | – | – | – |
| bap | 1 | 0.53 | 0.59 | – | – | – |
| CG11841 | 1 | 0.32 | 0.43 | – | – | – |
| apt | 1 | 0.61 | 0.2 | – | – | – |
| CG6254 | 1 | 0.5 | 0.15 | – | – | – |
| Mtmr6 | 1 | 0.36 | 0.55 | – | – | – |
| CG14499 | 1 | 0.12 | 0.41 | – | – | – |
| wa-cup | 1 | 0.38 | -0.16 | – | – | – |
| CG15370 | 1 | 0.3 | -0.67 | – | – | – |
| CG32532 | 1 | 0.58 | 0.12 | – | – | – |
| CG32532 | 2 | 0.58 | 0.17 | – | – | – |
| CG32532 | 3 | 0.49 | 0.25 | – | – | – |
| CG32532 | 4 | 1.52 | -0.37 | – | – | – |
| CG5098 | 1 | 0.29 | 0.35 | – | – | – |
| GCC185 | 1 | 0.05 | 0.09 | – | – | – |
| CG7406 | 1 | 0.33 | 0.48 | – | – | – |
| Mlh1 | 1 | 0.53 | 0.34 | – | – | – |
| lncRNA:bxd | 1 | 0.02 | 0.25 | – | – | – |
| CG13972 | 1 | 0.58 | 0.17 | – | – | – |
| CG13386 | 1 | 0.14 | 0.22 | – | – | – |
| Mur2B | 1 | 0.16 | 0.29 | – | – | – |
| Mur2B | 2 | -0.08 | 0.08 | – | – | – |
| gfzf | 1 | -0.18 | -0.28 | – | – | – |
| gfzf | 2 | 0.96 | 0.6 | – | – | – |
| CG11892 | 1 | 0.31 | 0.2 | – | – | – |
| rb | 1 | 0.41 | -0.77 | – | – | – |
| Trhn | 1 | 0.39 | 0.11 | – | – | – |
| Rrp45 | 1 | -0.55 | -0.71 | – | – | – |
| CG4957 | 1 | -0.71 | 0.21 | – | – | – |
| Yod1 | 1 | 0.19 | 0.4 | – | – | – |
| Mtch | 1 | 0.35 | 0.3 | – | – | – |
| mRpL39 | 1 | -0.68 | -0.22 | – | – | – |
| CG8067 | 1 | 0.19 | 0.27 | – | – | – |
| CG13138 | 1 | -0.14 | 0.11 | – | – | – |
| CG3124 | 1 | -0.7 | -0.62 | – | – | – |
| CG18273 | 1 | 0.61 | 0.47 | – | – | – |
| CG18273 | 2 | 0.34 | 0.44 | 0.16 | 0.06 | – |
| CG2608 | 1 | 0.32 | 0.33 | – | – | – |
| Mi-2 | 1 | -0.06 | 0.4 | – | – | – |
| CG6435 | 1 | 0.62 | 0.4 | – | – | – |
| Lcp65Ad | 1 | 0.4 | 0.41 | – | – | – |
| ZAP3 | 1 | 0.5 | 0.61 | – | – | – |
| ZAP3 | 2 | 0.25 | 0.51 | – | – | – |
| ZAP3 | 3 | 0.26 | 0.25 | – | – | – |
| Ctps | 1 | -1.82 | -1.2 | – | – | reduced secretion |
| Ctps | 2 | 0.07 | 0.26 | – | – | – |
| Ctps | 3 | -1.73 | -0.64 | – | – | – |
| CG17672 | 1 | -5.78 | -4.43 | – | – | reduced secretion |
| CG17672 | 2 | -0.06 | 0.23 | – | – | – |
| CG18666 | 1 | -0.12 | 0.3 | – | – | – |
| CG14883 | 1 | -0.6 | -0.29 | – | – | – |
| CG31688 + CG31687 | 1 | -0.46 | -0.67 | – | – | – |
| flz | 1 | 0.45 | 0.38 | – | – | – |
| Nil | 1 | -0.04 | -0.1 | – | – | – |
| CG4645 | 1 | 0.47 | 0.16 | – | – | – |
| SCCRO4 | 1 | 0.41 | 0.3 | – | – | – |
| Csas | 1 | 0.63 | 0.46 | – | – | – |
| CG7094 | 1 | 0.25 | 0.18 | – | – | – |
| GatA | 1 | 0.33 | 0.23 | – | – | – |
| Actn | 1 | 0.27 | 0.3 | – | – | – |
| CG3984 | 1 | 0.17 | 0.55 | – | – | – |
| ord | 1 | 0.33 | 0.44 | – | – | – |
| Agpat4 | 1 | 0.2 | 0.2 | – | – | – |
| Rift | 1 | 0.22 | 0.27 | – | – | – |
| ACXD | 1 | 0.27 | 0.28 | – | – | – |
| rux | 1 | 0.43 | 0.36 | – | – | – |
| CG9628 | 1 | 0.35 | 0.39 | – | – | – |
| CG14273 | 1 | -0.07 | 0.38 | – | – | – |
| CG8673 | 1 | 0.26 | 0.13 | – | – | – |
| CG6836 | 1 | 0.43 | 0.49 | – | – | – |
| ssp6 | 1 | -0.2 | 0.42 | – | – | – |
| ssp6 | 2 | -0.2 | 0.01 | – | – | – |
| CG13814 (retired record) | 1 | 0.44 | 0.68 | – | – | – |
| CG9727 | 1 | 0.47 | 0.33 | – | – | – |
| HHEX | 1 | -0.15 | -0.39 | – | – | – |
| MP1 | 1 | 0.38 | 0.28 | 0.26 | 0.43 | – |
| CG3342 | 1 | 0.39 | 0.41 | – | – | – |
| rho | 1 | 0.17 | 0.09 | – | – | – |
| alpha4GT2 | 1 | 0.51 | 0.63 | – | – | – |
| alpha4GT2 | 2 | 0.25 | 0.3 | – | – | – |
| CG6621 | 1 | 0.15 | 0.25 | – | – | – |
| CG42375 + CG9288 | 1 | 0.32 | 0.63 | – | – | – |
| cindr | 1 | 0.11 | 0.41 | – | – | – |
| cindr | 2 | -0.13 | -0.76 | – | – | – |
| Seipin | 1 | 0.12 | 0.28 | – | – | – |
| beat-Ic | 1 | 0.33 | 0.21 | – | – | – |
| beat-Ic | 2 | -0.71 | 0.03 | – | – | – |
| tutl | 1 | 0.49 | 0.42 | – | – | – |
| tutl | 2 | 0.41 | 0.41 | – | – | – |
| tutl | 3 | 0.12 | 0.01 | – | – | – |
| nrm | 1 | 0.5 | -0.07 | – | – | – |
| nrm | 2 | 0.34 | 0.13 | – | – | – |
| nrm | 3 | 0.13 | 0.23 | – | – | – |
| CaMKI | 1 | 0.21 | -0.11 | – | – | – |
| ClpP | 1 | 0.24 | 0.3 | – | – | – |
| Pop1 | 1 | 0.34 | 0.63 | – | – | – |
| CG33259 | 1 | 0.24 | 0.15 | – | – | – |
| CG11811 | 1 | 0.06 | 0.43 | – | – | – |
| CG13068 | 1 | 0.37 | 0.23 | – | – | – |
| CG4250 | 1 | 0.5 | 0.44 | – | – | – |

15 of these entries, set out differently.
Target gene | dsRNA no. | z-score, replicate 1 | z-score, replicate 2 | z-score, replicate 3 | z-score, replicate 4 | phenotype, replicate 1
CG6621 | 1 | 0.15 | 0.25 | – | – | –
CG42375 + CG9288 | 1 | 0.32 | 0.63 | – | – | –
cindr | 1 | 0.11 | 0.41 | – | – | –
cindr | 2 | -0.13 | -0.76 | – | – | –
Seipin | 1 | 0.12 | 0.28 | – | – | –
beat-Ic | 1 | 0.33 | 0.21 | – | – | –
beat-Ic | 2 | -0.71 | 0.03 | – | – | –
tutl | 1 | 0.49 | 0.42 | – | – | –
tutl | 2 | 0.41 | 0.41 | – | – | –
tutl | 3 | 0.12 | 0.01 | – | – | –
nrm | 1 | 0.5 | -0.07 | – | – | –
nrm | 2 | 0.34 | 0.13 | – | – | –
nrm | 3 | 0.13 | 0.23 | – | – | –
CaMKI | 1 | 0.21 | -0.11 | – | – | –
ClpP | 1 | 0.24 | 0.3 | – | – | –
